Data taken from PubChem BioAssay AID1159506, deposited by NCATS (2015).

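Luminescence from an EWS-FLI1 target-promoter (NR0B1) reporter, set against a CMV-promoter reporter, two days after silencing single genes in TC32 Ewing sarcoma cells.
Each siRNA was applied at 20 nM.
A z-score of the log NR0B1-over-CMV signal, less the median of siRNAs with the same seed; more negative means a stronger specific loss of the NR0B1 reporter.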

This is part of the screen; most of the strongest results are not listed here.
Sequences are the guide (antisense) strand, without overhang.

Sequence	target gene	seed-corrected z-score
AGAUGUUCAGCAAUCUUUC	RPRD1B	-1.744
AUGAUUAGGAAAUACAUUC	ANKRD10	0.2973
UUGUUUCUCAGGGCAAACA	CHRD	0.5617
UACUUAAAAACUGAUAAGG	ID4	1.625
UCCUCGUUAGUGUGCCUUG	LOC729461	-0.919
UUUAAGGUUGCUUGGUUCC	MEPE	-0.3586
UGUUGUAGAGGUUUAACUG	PLAG1	-1.093
UCCUGGUCCAUGGUAAACC	PNLIPRP3	-0.319
UAAGGUACACCUCAUCCAG	XPNPEP1	-1.056
UAUUCUCAGAUAGUUCGGC	PCDH1	-0.4411
UGUCGUACAGCAGCAGGUC	MIB2	-0.5817
UCCCGAAUGAGAGUCCUAC	CCND1	-0.08042
AUAAAACCCAUCACAGUUG	TNFSF4	0.5497
UAUUUGACACUGUUCAUAG	PIGB	-0.8549
UAAGAAUGCAUCCUGUACU	DMRT1	0.1143
UCUUCUUCCGAGAAGAUGC	FICD	0.6093
UGUAUUGGAAUCCAUAUCG	AK5	0.07282
UUUUGAUCUGAUAUUUGCC	AP2A2	-0.00932
AUCGAUGAAAUUUCCAUAC	GTPBP10	-0.0554
UAAACUUUCAGGAGGCUGU	TMEM82	-1.617
UUAGGUGUCCCAUGUAACC	PPP6R3	-0.2116
UAAUUAGAAACGGAGUUUU	TP53I13	-0.0005829
AUACCCACCACGAAGAGUG	GHSR	-0.2678
AAAUUACGUACUCAUAAUC	NEMF	-0.5294
UGGGCUAAUAGUUUAAGGG	MYT1L	-0.1152
AAUCCCAUAAACAUCAUCU	FAM213A	-1.14
AAUCUAAUCGCGGUCACCC	GRB14	0.5283
UUCUUGUAGGGAAACUGUC	MAP2K7	0.8716
UUUCGGGAGGCUGAUUACC	LOC389641	-0.5194
AUAGUAUAAGUCAUUUCGC	HLTF	-0.2349
UACUGGGUAAGUGAGGAGC	ZNF354C	-0.4014
UUUUCUCCCAGUGCGAGGU	TBC1D10C	0.5698
UUCGGCAGAAGUGUCAACG	GEMIN4	-0.03356
UCUGGAUAUGGGUAGAUUG	NKX1-1	0.06064
UCGCUUCUCAAAGAACAUG	PLSCR3	-0.3158
UACAGGGCGAGAGUAUGCG	ZNHIT2	0.2076
AACUCGAUCUGUUUACUCC	ALMS1	0.5108
AUAGUCACCAAUCUUCACC	AATK	-0.6066
AAACGGACUCUCUUGCACC	D2HGDH	-0.3464
AAAGCUAGGAGUUGAAAUC	DNAJC15	0.6353
UUGAAGACCACCUCCGACG	LGALS7B	0.02827
UGUAGAGUGAGUCCUGGGC	FAM131A	1.039
UUGUUUGACAGGGCUUUGC	NPM2	-0.7193

Some entries from above, unchanged:

- UUUCGGGAGGCUGAUUACC against LOC389641 | seed-corrected z-score -0.5194
- UUUUGAUCUGAUAUUUGCC against AP2A2 | seed-corrected z-score -0.00932
- UCGCUUCUCAAAGAACAUG against PLSCR3 | seed-corrected z-score -0.3158
- UGUCGUACAGCAGCAGGUC against MIB2 | seed-corrected z-score -0.5817